Test results taken from article doi:10.1101/2023.05.28.542599.

Target: TgTBC9^3xHA (Toxoplasma gondii)
Experiment: affinity purification with mass spectrometry

B1: Rab11B (protein, UniProt Q7Z158 1-226)
chain: MAGGSEDYDHLYKVILVGDATVGKTHLLSRYIRGTLPKSPKATIGVEFATRTVPLAVGGTVKAQIWDTAGQERYRSITSAHYRRAVGALLVYDVTRKSTFLNASKWLEELRQNSEPDIVIMMVGNKLDLVEKDPTARDVPYELAAKFAQANGLYFSEASAVTAFNVKHIFEHLLQEIYNHRTQGEEFSGRANGADAYRDAQALGGVRLAANANMYGRNPQNLSCCG
For B1, the binding was “binds”.

Results are given in words; binding and its absence hold for the method and conditions named. Binding seen in cells or lysates may run through a third protein. Here binding means that the protein was enriched with, or labelled near, the bait; the list need not be complete.
